# Experimental data as given in PubChem BioAssay AID256 (DTP/NCI, 2004).
# The list does not hold the whole screen: it is rich in T/C values a quarter to a half above the control, in often repeated tests (any T/C) and in doses without a T/C. Other doses and runs of a compound stand elsewhere. T/C gives the treated animals as a percentage of the vehicle group. Some entries give survivors of the animals treated and no T/C: the source files T/C as zero there, which appears to mark a toxic dose or a test without result, not a measured value. Some doses without a T/C left all or most animals alive at the check, yet need not have been tolerated: the source hardly ever lists a survival T/C far under the control, and the zero likely stands for such cases as well. Survivors were counted at the toxicity check, usually on the fifth day, unless a day is given; later deaths do not show. Schedule codes are those of the source, taken here to give the interval after Q, in days (D) or hours (H), and the number of doses after X. Where survival is the endpoint, this PubChem deposit counts one and a half times the control or more as active, and values a quarter to a half above the control carry no call in these data; other NCI protocols may use other cut-offs. Some T/C values are followed by the survivors on the day toxicity was checked, most often the fifth; where none is given, no animal had died by that day. Some doses were run more than once; the results are listed from low to high. Marks such as (2×) stand for listed records that agree.
# Tested on: CD2F1 mice, L1210 leukemia ip, survival T/C
# Test: NCI In Vivo Anticancer Drug Screen. Data for tumor model L1210 Leukemia (intraperitoneal) in CD2F1 (CDF1) mice
# Conditions: higher T/C = longer survival
# In short: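 Read-out first: treated-group measurement over vehicle-control measurement, expressed as a ratio. Animals bore a transplanted tumor line and were dosed with compound or vehicle.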
# [1] = T/C endpoint: mean survival time, dose: 50.0 mg/kg/injection, schedule: Q04DX003 (ip), vehicle: saline with Tween-80
# [2] = T/C endpoint: mean survival time, dose: 200.0 mg/kg/injection, schedule: Q01DX009 (ip), vehicle: saline with Tween-80
# [3] = T/C endpoint: mean survival time, dose: 200.0 mg/kg/injection, schedule: Q01DX009 (ip), vehicle: Klucel (hydroxypropylcellulose) (HPC)
compound,measurement,setting,value
Cc1ccc(NN=O)nc1,T/C,"T/C endpoint: median survival time, dose: 3.0 mg/kg/injection, schedule: Q01DX009 (ip), vehicle: water",126 % of control
same,T/C,"T/C endpoint: median survival time, dose: 6.0 mg/kg/injection, schedule: Q01DX009 (ip), vehicle: water",125 and 131 % of control
same,T/C,"T/C endpoint: median survival time, dose: 6.25 mg/kg/injection, schedule: Q01DX009 (ip), vehicle: water",138 % of control
same,T/C,"T/C endpoint: median survival time, dose: 12.0 mg/kg/injection, schedule: Q01DX009 (ip), vehicle: water",143 % of control
same,T/C,"T/C endpoint: median survival time, dose: 12.5 mg/kg/injection, schedule: Q01DX009 (ip), vehicle: water",136 % of control
same,survivor count,"T/C endpoint: median survival time, dose: 25.0 mg/kg/injection, schedule: Q01DX009 (ip), vehicle: water",5 of 6
same,survivor count,"T/C endpoint: median survival time, dose: 48.0 mg/kg/injection, schedule: Q01DX009 (ip), vehicle: water",3 of 6
COC(=O)c1ccccc1N1C(=O)C=CC1=O,survivor count,[1],3 of 6
OCc1ccn2c1C(O)CC2 (stereo not given),T/C,"T/C endpoint: mean survival time, dose: 100.0 mg/kg/injection, schedule: Q01DX009 (ip), vehicle: saline with Tween-80",145 % of control [5 of 6 alive]
same,survivor count,[2],6 of 6
same,survivor count,"T/C endpoint: mean survival time, dose: 400.0 mg/kg/injection, schedule: Q01DX009 (ip), vehicle: saline with Tween-80",5 of 6
Cc1ccc(C(=O)Nc2ncn(C3CC(O)C(CO)O3)c(=O)n2)cc1 (stereo not given),T/C,"T/C endpoint: mean survival time, dose: 25.0 mg/kg/injection, schedule: Q01DX005 (ip), vehicle: saline with Tween-80",128 % of control
same,survivor count,"T/C endpoint: mean survival time, dose: 100.0 mg/kg/injection, schedule: Q01DX005 (ip), vehicle: saline with Tween-80",6 of 6
Oc1ccc(/C=N/NC(=S)NN2CCOCC2)nc1,T/C,"T/C endpoint: mean survival time, dose: 50.0 mg/kg/injection, schedule: Q04DX002 (ip), vehicle: saline with Tween-80",133 % of control
same,survivor count,"T/C endpoint: mean survival time, dose: 200.0 mg/kg/injection, schedule: Q04DX002 (ip), vehicle: saline with Tween-80",1 of 3
same,survivor count,"T/C endpoint: mean survival time, dose: 400.0 mg/kg/injection, schedule: Q04DX002 (ip), vehicle: saline with Tween-80",0 of 3
O=C(CN1CC1)NCCCCCCCCCNC(=O)CN1CC1,T/C,"T/C endpoint: mean survival time, dose: 50.0 mg/kg/injection, schedule: Q01DX001 (ip), vehicle: carboxymethylcellulose (CMC)",126 % of control
same,survivor count,"T/C endpoint: mean survival time, dose: 75.0 mg/kg/injection, schedule: Q01DX001 (ip), vehicle: carboxymethylcellulose (CMC)",1 of 6
O=C1C=CC(=O)c2c(O)cccc21,survivor count,"T/C endpoint: mean survival time, dose: 12.5 mg/kg/injection, schedule: Q01DX009 (ip), vehicle: saline with Tween-80",0 of 6
same,survivor count,"T/C endpoint: mean survival time, dose: 25.0 mg/kg/injection, schedule: Q04DX003 (ip), vehicle: saline with Tween-80",5 of 6
same,survivor count,[1],4 of 6
same,survivor count,"T/C endpoint: mean survival time, dose: 100.0 mg/kg/injection, schedule: Q04DX003 (ip), vehicle: saline with Tween-80",4 of 6
same,survivor count,"T/C endpoint: mean survival time, dose: 200.0 mg/kg/injection, schedule: Q04DX003 (ip), vehicle: saline with Tween-80",4 of 6
same,survivor count,"T/C endpoint: mean survival time, dose: 400.0 mg/kg/injection, schedule: Q04DX003 (ip), vehicle: saline with Tween-80",0 of 6
CC(=O)N(Cc1ccccn1)N=O,survivor count,"T/C endpoint: mean survival time, dose: 300.0 mg/kg/injection, schedule: Q01DX001 (ip), vehicle: water",0 of 6
O=NN1C(=O)C2CC3CC(C2)CC1C3,survivor count,"T/C endpoint: mean survival time, dose: 25.0 mg/kg/injection, schedule: Q04DX003 (ip), vehicle: acetone",6 of 6
same,survivor count,"T/C endpoint: mean survival time, dose: 50.0 mg/kg/injection, schedule: Q04DX003 (ip), vehicle: acetone",2 of 6
COc1ccc(OC)c(/C=C/c2ccnc3ccccc23)c1,survivor count,"T/C endpoint: median survival time, dose: 800.0 mg/kg/injection, schedule: Q01DX009 (ip), vehicle: saline with Tween-80",2 of 6
Cc1cc(N(C)C)c(C)cc1N=Nc1cc[n+]([O-])cc1,survivor count,"T/C endpoint: mean survival time, dose: 225.0 mg/kg/injection, schedule: Q04DX002 (ip), vehicle: saline with Tween-80",1 of 3
COc1ccc(NC(=O)Oc2ccc(Cl)c(C)c2)cc1,survivor count,[2],6 of 6
Cc1cc(N(CCOS(C)(=O)=O)CCOS(C)(=O)=O)ccc1C=Nc1ccc(-c2nc(Cc3ccccc3)sc2C)cc1,T/C,"T/C endpoint: mean survival time, dose: 25.0 mg/kg/injection, schedule: Q01DX009 (ip), vehicle: Klucel (hydroxypropylcellulose) (HPC)",127 % of control
same,T/C,"T/C endpoint: mean survival time, dose: 50.0 mg/kg/injection, schedule: Q01DX009 (ip), vehicle: Klucel (hydroxypropylcellulose) (HPC)",130 % of control
same,T/C,"T/C endpoint: mean survival time, dose: 100.0 mg/kg/injection, schedule: Q01DX009 (ip), vehicle: Klucel (hydroxypropylcellulose) (HPC)",141 % of control
same,T/C,[3],137 % of control
same,survivor count,[3],5 of 6
same,survivor count,"T/C endpoint: mean survival time, dose: 400.0 mg/kg/injection, schedule: Q01DX009 (ip), vehicle: Klucel (hydroxypropylcellulose) (HPC)",6 of 6
same,T/C,"T/C endpoint: median survival time, dose: 25.0 mg/kg/injection, schedule: Q01DX005 (ip), vehicle: Klucel (hydroxypropylcellulose) (HPC), evaluated on day 30","116 (2×), 117, 119, 123 (2×), 127, 130, 133 [5 of 6 alive], 135 % of control"
same,T/C,"T/C endpoint: median survival time, dose: 25.0 mg/kg/injection, schedule: Q01DX005 (ip), vehicle: Klucel (hydroxypropylcellulose) (HPC), evaluated on day 60",134 % of control
same,T/C,"T/C endpoint: median survival time, dose: 25.0 mg/kg/injection, schedule: Q01DX009 (ip), vehicle: Klucel (hydroxypropylcellulose) (HPC), evaluated on day 30","107, 116, 120, 121, 126, 131, 132, 135 (2×), 147 % of control"
same,T/C,"T/C endpoint: median survival time, dose: 25.0 mg/kg/injection, schedule: Q01DX009 (ip), vehicle: Klucel (hydroxypropylcellulose) (HPC), evaluated on day 60",120 % of control [5 of 6 alive]
same,T/C,"T/C endpoint: median survival time, dose: 50.0 mg/kg/injection, schedule: Q01DX005 (ip), vehicle: Klucel (hydroxypropylcellulose) (HPC), evaluated on day 30","114, 122 (2×), 123 [5 of 6 alive], 128 [5 of 6 alive], 131, 135 (2×), 139, 142 % of control"
same,T/C,"T/C endpoint: median survival time, dose: 50.0 mg/kg/injection, schedule: Q01DX005 (ip), vehicle: Klucel (hydroxypropylcellulose) (HPC), evaluated on day 60",146 % of control
same,T/C,"T/C endpoint: median survival time, dose: 50.0 mg/kg/injection, schedule: Q01DX009 (ip), vehicle: Klucel (hydroxypropylcellulose) (HPC), evaluated on day 30","104, 121 (2×), 125, 129, 137, 142 (3×), 148 % of control"
same,T/C,"T/C endpoint: median survival time, dose: 50.0 mg/kg/injection, schedule: Q01DX009 (ip), vehicle: Klucel (hydroxypropylcellulose) (HPC), evaluated on day 60",128 % of control [5 of 6 alive]
same,T/C,"T/C endpoint: median survival time, dose: 100.0 mg/kg/injection, schedule: Q01DX005 (ip), vehicle: Klucel (hydroxypropylcellulose) (HPC), evaluated on day 30","123, 133, 136, 142 (2×), 146, 147 [5 of 6 alive], 151, 156, 158 % of control"
same,T/C,"T/C endpoint: median survival time, dose: 100.0 mg/kg/injection, schedule: Q01DX005 (ip), vehicle: Klucel (hydroxypropylcellulose) (HPC), evaluated on day 60",145 % of control
same,T/C,"T/C endpoint: median survival time, dose: 100.0 mg/kg/injection, schedule: Q01DX009 (ip), vehicle: Klucel (hydroxypropylcellulose) (HPC), evaluated on day 30","110, 113, 117, 120, 121, 128, 132, 133, 137 [5 of 6 alive], 148 % of control"
same,T/C,"T/C endpoint: median survival time, dose: 100.0 mg/kg/injection, schedule: Q01DX009 (ip), vehicle: Klucel (hydroxypropylcellulose) (HPC), evaluated on day 60",140 % of control
same,T/C,"T/C endpoint: median survival time, dose: 200.0 mg/kg/injection, schedule: Q01DX005 (ip), vehicle: Klucel (hydroxypropylcellulose) (HPC), evaluated on day 30","91, 104, 113, 117, 119 [5 of 6 alive], 132, 133, 138, 144, 173 % of control"
same,T/C,"T/C endpoint: median survival time, dose: 200.0 mg/kg/injection, schedule: Q01DX005 (ip), vehicle: Klucel (hydroxypropylcellulose) (HPC), evaluated on day 60",158 % of control
same,T/C,"T/C endpoint: median survival time, dose: 200.0 mg/kg/injection, schedule: Q01DX009 (ip), vehicle: Klucel (hydroxypropylcellulose) (HPC), evaluated on day 30","89, 107, 108, 110, 111, 116, 118, 123, 132, 165 % of control"
same,T/C,"T/C endpoint: median survival time, dose: 200.0 mg/kg/injection, schedule: Q01DX009 (ip), vehicle: Klucel (hydroxypropylcellulose) (HPC), evaluated on day 60",142 % of control
same,T/C,"T/C endpoint: median survival time, dose: 400.0 mg/kg/injection, schedule: Q01DX005 (ip), vehicle: Klucel (hydroxypropylcellulose) (HPC), evaluated on day 30","89, 95 [5 of 6 alive], 98, 109, 113, 114, 118, 120, 135 [5 of 6 alive], 188 % of control"
same,T/C,"T/C endpoint: median survival time, dose: 400.0 mg/kg/injection, schedule: Q01DX005 (ip), vehicle: Klucel (hydroxypropylcellulose) (HPC), evaluated on day 60",189 % of control
same,T/C,"T/C endpoint: median survival time, dose: 400.0 mg/kg/injection, schedule: Q01DX009 (ip), vehicle: Klucel (hydroxypropylcellulose) (HPC), evaluated on day 30","87 [5 of 6 alive], 93, 96 [5 of 6 alive], 98 (2×), 100, 101, 112, 156 % of control"
same,T/C,"T/C endpoint: median survival time, dose: 400.0 mg/kg/injection, schedule: Q01DX009 (ip), vehicle: Klucel (hydroxypropylcellulose) (HPC), evaluated on day 60",122 % of control
same,survivor count,"T/C endpoint: median survival time, dose: 400.0 mg/kg/injection, schedule: Q01DX009 (ip), vehicle: Klucel (hydroxypropylcellulose) (HPC)",6 of 6
BrCC[n+]1ccc(-c2cc[n+](CCBr)cc2)cc1,survivor count,"T/C endpoint: mean survival time, dose: 100.0 mg/kg/injection, schedule: Q01DX001 (ip), vehicle: Klucel (hydroxypropylcellulose) (HPC)",0 of 6
same,survivor count,"T/C endpoint: mean survival time, dose: 200.0 mg/kg/injection, schedule: Q01DX001 (ip), vehicle: Klucel (hydroxypropylcellulose) (HPC)",0 of 6
same,survivor count,"T/C endpoint: mean survival time, dose: 400.0 mg/kg/injection, schedule: Q01DX001 (ip), vehicle: Klucel (hydroxypropylcellulose) (HPC)",0 of 6
